# Screening data, single-dose tests

Chains of the proteins cited; added tags and fusions are not shown. Residues count along the entry.
UniProt Q8IDJ8, 1-583: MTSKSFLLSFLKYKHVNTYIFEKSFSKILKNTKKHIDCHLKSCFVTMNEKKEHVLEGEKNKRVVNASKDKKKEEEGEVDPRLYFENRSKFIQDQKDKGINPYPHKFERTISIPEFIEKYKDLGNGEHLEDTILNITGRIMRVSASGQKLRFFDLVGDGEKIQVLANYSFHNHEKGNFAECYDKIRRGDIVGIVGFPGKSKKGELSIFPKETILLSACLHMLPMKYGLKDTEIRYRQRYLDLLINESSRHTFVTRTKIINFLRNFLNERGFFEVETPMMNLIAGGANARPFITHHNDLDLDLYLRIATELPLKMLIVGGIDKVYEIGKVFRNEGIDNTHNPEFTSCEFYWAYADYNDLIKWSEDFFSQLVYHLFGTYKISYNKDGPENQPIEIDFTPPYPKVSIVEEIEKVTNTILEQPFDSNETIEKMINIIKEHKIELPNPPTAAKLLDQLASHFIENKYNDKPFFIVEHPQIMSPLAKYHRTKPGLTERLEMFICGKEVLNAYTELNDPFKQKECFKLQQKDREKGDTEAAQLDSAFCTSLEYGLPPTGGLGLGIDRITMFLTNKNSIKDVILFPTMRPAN
UniProt A4I591, 1-473: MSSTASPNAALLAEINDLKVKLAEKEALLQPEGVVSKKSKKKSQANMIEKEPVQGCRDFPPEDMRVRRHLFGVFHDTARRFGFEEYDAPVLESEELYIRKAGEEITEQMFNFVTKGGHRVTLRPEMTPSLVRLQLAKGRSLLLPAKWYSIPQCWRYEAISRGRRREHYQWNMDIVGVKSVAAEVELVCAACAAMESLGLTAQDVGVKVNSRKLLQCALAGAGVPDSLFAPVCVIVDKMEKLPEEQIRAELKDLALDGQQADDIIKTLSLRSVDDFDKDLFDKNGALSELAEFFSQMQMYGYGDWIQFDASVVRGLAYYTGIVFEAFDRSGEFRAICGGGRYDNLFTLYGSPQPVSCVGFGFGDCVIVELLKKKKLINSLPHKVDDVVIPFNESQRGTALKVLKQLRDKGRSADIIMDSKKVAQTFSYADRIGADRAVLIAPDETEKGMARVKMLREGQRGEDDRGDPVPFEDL

Data taken from ChEMBL document CHEMBL3988442, “University of Dundee, Small-Polar-MMV Screening Library” (2021).

A: 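Cell assay of Leishmania donovani living inside macrophages; the read-out is not stated. Compounds at 30 µM. Higher reads as stronger inhibition (inferred: compounds with an IC50 in retests scored well above the rest). Size under these conditions: about 69,000 compounds, about 1,000 of them at 50% or above in at least one test.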
B: 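Enzyme assay of the cytosolic lysyl-tRNA synthetase in 384-well plates, read by luminescence. Target: Lysine-tRNA ligase, Plasmodium falciparum 3D7 (UniProt Q8IDJ8). Concentration: 30 µM. Higher reads as stronger inhibition, judged from the few compounds that gave an IC50. Of about 69,000 compounds tested this way, about 49 (0.071%) reached 50% or more in at least one test.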
C: 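Enzyme assay of histidyl-tRNA synthetase; the read-out is not stated. Target: Histidine-tRNA ligase, Leishmania infantum (UniProt A4I591). Compounds at 30 µM. The record gives no direction; compounds that gave an IC50 in retests scored well above the rest, so higher reads as stronger inhibition. The assay is labelled LdHisRS but filed under L. infantum. About 69,000 compounds were tested under these conditions; 0.6% (about 410) showed 50% or more at least once.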

Each number is a percent effect as filed. The controls that fix the scale are not given in the record; negative values are as filed. The compounds are a random part of those screened. Two or more numbers in one place are separate tests of the same structure; such repeats can differ widely.

With [H][C@]12CC[C@]([H])(CN(c3ncccn3)C1)N(CC=C(C)C)C2=O the screen gave A: 22.93% and 28.5%. [H][C@]12CCCCN1CCC[C@H]2CCC(=O)NCCc1nc(N)cc(O)n1 gave A: 35.41%. With Cc1nncn1CCN1C(=O)CC2(CCCC2)CC1=O the screen gave A: 0.8262%; B: 7.213%; C: 11.67%. CCn1ccnc1CN1CCN(c2ncnc3ccsc23)CC1C (centres unmarked) read A: 2.586%; B: -1.277%; C: 13.7%. CC(C)(C)c1coc([C@@H]2COCCN2Cc2ccccn2)n1 gave A: 14.6%; B: 3.74%; C: 8.108%. Result for CCCn1cc(-c2cc(-c3ccoc3)c(C#N)c(N)n2)c(C)n1 was A: -11.44%; B: 2.726%; C: 29.51%. Result for COc1cc(NC(=O)N(C)CC2CC2)ncn1 was A: 26.56%; B: 2.06%; C: 10%.

Result for COCC1CC2(CCN(c3cccc(C)n3)CC2)CN1C(C)C.O=C(O)C(F)(F)F.O=C(O)C(F)(F)F (centres unmarked) was A: 25.56%. CCN(C)c1ncnc2c1CCN(CC1CCOC1)CC2 (centres unmarked) gave B: 1.152%; C: 17%. For Cc1csc(CNc2cnn(CC(F)(F)F)c2)n1 the result was A: -13.16%; B: -1.512%; C: -18.64%. Result for Cc1[nH]c(-c2ccccc2)nc1C(=O)N1CCC(O)(CO)CC1 was A: 20.13%; B: 6.994%; C: 8.065%. For [H][C@]12CC[C@]([H])(CN(Cc3ccncc3)C1)N(S(C)(=O)=O)C2 the result was A: 41.67%. For CCC1c2ccsc2CCN1Cc1cc2c(cc1OC)OCCO2 (centres unmarked) the result was A: 7.207%; B: -1.316%; C: -18.44%. With CCS(=O)(=O)N1CCCC2(CCCN2Cc2cccc(F)c2)C1.O=C(O)C(F)(F)F (centres unmarked) the screen gave A: 12.48%.

For CCN(CC(=O)NC(C)C)S(=O)(=O)N1CCC(C)C1 (centres unmarked) the result was A: 16.41%; B: -0.7892%; C: 5.66%. With Cc1nc(CN2CCCC(NCCCc3ccccc3)C2)no1 (centres unmarked) the screen gave A: 29.89%; B: 2.236%; C: 15.25%. For CCCc1cc(=O)[nH]c(-n2nc(-c3cccs3)cc2N)n1 the result was A: -5.205%; B: 3.33%; C: 20%. Result for [H][C@@]12C[C@H](C(=O)N(C)C)[C@@]([H])(CN(S(=O)(=O)CC(C)C)C1)O2 was A: -4.505%. CCC[C@H]1CN(CCS(C)(=O)=O)C[C@@H]1NC(=O)c1cc(CC)on1 gave A: -7.054%; B: -1.081%; C: 5.714%. Result for Cn1ncc2c1C(COCC1CC1)N(Cc1ccoc1)CC2.O=C(O)C(F)(F)F.O=C(O)C(F)(F)F (centres unmarked) was A: -11.8%. With COc1ccc2cc(NC(=O)CCNc3nc(C)cc(C)n3)cnc2c1 the screen gave A: -11.84%; B: -0.09698%; C: 10.53%.

With CC(C)Nc1ncnc2c1CCN(C(=O)NCc1cccc(F)c1)CC2 the screen gave A: 18.26%; B: 4.692%; C: 17.27%. Result for Cn1ccnc1CN1CCC2(COCCN(S(=O)(=O)C3CC3)C2)C1 (centres unmarked) was A: -6.153%; B: 1.856%; C: 11.54%. For [H][C@]12CC[C@]([H])(CN(Cc3ccc(OC)cc3)C1)N(S(=O)(=O)C1CC1)C2 the result was A: 14.09%. With O=C(NS(=O)(=O)c1ccc2c(c1)OCCO2)c1ccc(Br)cc1F the screen gave A: 4.513%; B: 1.573%; C: 10.81%. Cc1noc(CCCNC(=O)CNC(=O)c2cc3ccccc3[nH]2)n1 gave A: 3.925%; B: 4.779%; C: 20.35%. Cc1nc(O)cc(C2CCN(C(=O)C(C)Cn3nc(C)nc3C)CC2)n1 (centres unmarked) read A: 41.33%; B: 6.594%; C: 14.75%. CCc1nnsc1C(=O)N1CCCC(COc2ccc(F)cc2)C1 (centres unmarked) gave A: 15.13%; B: 5.928%; C: 11.84%.

CC1CCN(C(=O)[C@@H]2C[C@@H]3CCN(Cc4nccs4)C[C@H]3O2)CC1 read B: 3.053%; C: 15.45%. Result for CCN(C(=O)c1ccccc1I)C1CC(=O)NC1=O (centres unmarked) was A: 32.11%; B: 2.615%; C: 20%. For Cc1csc2c(=O)n(CCSc3cnn[nH]3)cnc12 the result was A: 17.5%; B: 2.701%; C: 13.99%. With O=C(Cc1ccccn1)N1CCN(C(=O)CC2CCCCC2)CC1 the screen gave A: -18%; B: 0.2709%; C: -2.655%.

4 of the entries, repeated:

{"structure": "CCCc1cc(=O)[nH]c(-n2nc(-c3cccs3)cc2N)n1", "A": -5.205, "B": 3.33, "C": 20}
{"structure": "Cc1csc2c(=O)n(CCSc3cnn[nH]3)cnc12", "A": 17.5, "B": 2.701, "C": 13.99}
{"structure": "CC(C)(C)c1coc([C@@H]2COCCN2Cc2ccccn2)n1", "A": 14.6, "B": 3.74, "C": 8.108}
{"structure": "Cc1nc(O)cc(C2CCN(C(=O)C(C)Cn3nc(C)nc3C)CC2)n1", "stereo": "centres unmarked", "A": 41.33, "B": 6.594, "C": 14.75}